Library screening results

Protein sequences, listed by entry. Tags and fused reporters are not part of them.
UniProt E9BF75, entry or part of it: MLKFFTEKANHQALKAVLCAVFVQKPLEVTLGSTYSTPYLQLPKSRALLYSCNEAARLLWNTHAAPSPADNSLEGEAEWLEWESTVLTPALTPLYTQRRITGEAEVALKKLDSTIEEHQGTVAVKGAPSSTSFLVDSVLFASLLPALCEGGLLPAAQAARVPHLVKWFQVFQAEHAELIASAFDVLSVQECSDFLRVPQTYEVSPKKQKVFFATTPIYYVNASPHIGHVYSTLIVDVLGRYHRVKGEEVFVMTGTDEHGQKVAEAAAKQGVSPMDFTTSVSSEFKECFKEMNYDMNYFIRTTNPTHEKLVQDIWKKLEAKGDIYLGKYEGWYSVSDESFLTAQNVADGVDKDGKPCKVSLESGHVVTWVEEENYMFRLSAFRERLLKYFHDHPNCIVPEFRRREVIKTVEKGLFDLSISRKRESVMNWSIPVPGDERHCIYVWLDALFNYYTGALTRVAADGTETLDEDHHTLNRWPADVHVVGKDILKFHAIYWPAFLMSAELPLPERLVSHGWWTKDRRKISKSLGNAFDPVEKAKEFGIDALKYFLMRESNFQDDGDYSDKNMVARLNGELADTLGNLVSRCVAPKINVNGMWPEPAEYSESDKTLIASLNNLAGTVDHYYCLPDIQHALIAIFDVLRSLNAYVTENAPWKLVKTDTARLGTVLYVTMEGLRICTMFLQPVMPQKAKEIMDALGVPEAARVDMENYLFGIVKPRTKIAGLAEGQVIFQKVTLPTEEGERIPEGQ

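Primary screen of methionyl-tRNA synthetase; the read-out is not stated. Target: Methionyl-tRNA synthetase (putative), Leishmania donovani (UniProt E9BF75). The test concentration is not given. The values are filed as inhibition. About 68,000 compounds were tested under these conditions; 0.035% (about 24) showed 50% or more at least once.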

Results are percentages, as filed.
The record does not define 0% and 100%; most values in the screen are far below 50% and negative numbers occur (in some assays of this library far below -100).
This is an unselected part of the compounds tested.

structure,inhibition
CCOc1ncccc1CNC(=O)NCCNC(=O)c1ccco1,21.1
N#Cc1ccc(CNC(=O)NC2CCN(CC(F)(F)F)C2)cc1 (configuration not stated),3.559
Cc1ncc(CNC(=O)N(C)Cc2ccc([S+](C)[O-])cc2)s1 (configuration not stated),14.67
CCn1ccnc1CN(C)c1cc(C2CC2)ncn1,15.47
CC(C)(C)S(=O)(=O)c1ccc(N2CCC(n3cncn3)CC2)cn1,8.06
Cc1nc(CN2CCc3ncnc(C4CCOC4)c3CC2)cs1 (configuration not stated),12.7
CC(CN1CCC(c2ccccc2)CC1)n1cnc2ccccc21 (configuration not stated),17.16
O=C(c1ccncc1)N1CCCC(c2ncncc2-c2ccncc2)C1 (configuration not stated),7.12
CS(=O)(=O)N1CCC(Oc2ccc(C(=O)NCCC(N)=O)cc2Cl)CC1,7.116
CC(Cn1cccn1)NCc1cnc(N2CCCC2)nc1 (configuration not stated),15.09
Cc1cc(CN(C)C(=O)c2ccc(F)cc2F)no1,8.877
Cc1nc2n(n1)CC(NCC(=O)Nc1cc(C)on1)CC2 (configuration not stated),7.263
CCCC(O)CN1CCC(=O)N(CCOC)Cc2ccccc21 (configuration not stated),4.11
c1coc(CN2CCn3c(CN4CCOCC4)nnc3C2)c1,15.79
COCCOc1ccnc(-c2noc([C@@H]3CCCN3C(C)C)n2)c1,10.51
Cc1[nH]c2c(F)cccc2c1CC(=O)NC1CCCCNC1=O (configuration not stated),4.762
CN(CC(=O)N1CCCC1c1noc(C2CC2)n1)S(C)(=O)=O (configuration not stated),13.49
CC(C)[C@H]1CN(Cc2ccccc2C#N)C[C@@H]1NC(=O)C1CCOCC1,6.269
Cc1ccc(CN(Cc2nc3c(cnn3C)c(=O)[nH]2)C2CC2)o1,8.832
Fc1cnc(N2C[C@H]3CN(Cc4cccc(F)c4)C[C@H]3C2)nc1,5.19
Cc1nc(C)n(CC2CCCN(Cc3ccc4c(c3)OCCO4)C2)n1 (configuration not stated),20
O=C(c1ccccc1)C1CCN(C(=O)CC2COCCN2)CC1 (configuration not stated),0.8475
O=C1CN(Cc2ccc(-c3ccccc3C(=O)O)cc2)CCN1,-1.049
COc1ccnc(CN2CCC(O)(c3ccc(C)cn3)CC2)c1OC,7.904
CN(C)CCN1CCO[C@H]2CN(C(=O)C3CCOCC3)C[C@H]21,15.22
Cc1cnc(C)c(-c2cc(O)c3c(c2)CN(c2nccs2)CCO3)n1,11.06
CN(C)CCNC(=O)c1sccc1N(C)S(=O)(=O)c1ccc(Cl)cc1,10.2
COc1c(CNC2CCN(CC(=O)NC3CC3)CC2)c(C)nn1C,10.99
N#Cc1ccc(OCC(=O)N2CCCC(n3cccn3)C2)cc1 (configuration not stated),10.65
CCN1CC2(CC1=O)CN(C(=O)N(C)C)CCN(S(C)(=O)=O)C2 (configuration not stated),15.94
COC(=O)c1ccc(Cn2cccc(C(F)(F)F)c2=O)s1,16.03
CC(C)(C)C(=O)N1CCCN(c2ncnc3nc(N)ccc23)CC1,10.48
Cc1cccc(CN2CCN(C(=O)c3cc(C4CC4)[nH]n3)CC2)c1,17.22
NS(=O)(=O)CCNC(=O)c1cc(Br)c2c(c1)OCCO2,14.66
Cc1nnc(C(C)Nc2cccc(COCCOC(C)C)c2)o1 (configuration not stated),6.835
CCNc1ncc(C(=O)N(C)Cc2nc3ccccc3n2C)cn1,-24.93
CS(=O)(=O)N1CCC(c2cnc(-c3cn[nH]c3)cn2)CC1,15.94
c1csc(N2CCCN(Cc3noc(C4CC4)n3)CC2)n1,15.91
CC(C)n1cc(C(=O)NCC(CO)Cc2cccs2)cn1 (configuration not stated),15.4
CC(C)n1cc(CN2CCCN(C(=O)C3CCCN3C)CC2)cn1 (configuration not stated),22.22
Cc1nccc(C(=O)N2CCCC(c3cc(C(F)(F)F)[nH]n3)C2)n1 (configuration not stated),20.11
O=C(NCc1ccccc1)N1CCC2(CC(=O)N(c3ccsc3)C2)C1 (configuration not stated),12.38
CS(=O)(=O)N1CCOCC2(CCN(Cc3ccc[nH]3)CC2)C1,16.67
CCN(C)S(=O)(=O)NCC1CCN(Cc2ccccc2C)CC1,12.24
CC(CNC(=O)c1ccncc1F)Oc1ccc(F)cc1 (configuration not stated),20.1
CC(C)c1nc(COc2cccc3c2NC(=O)CO3)cs1,12.77
Cc1ccnc(NC(=O)CCNC(=O)c2ccccc2Cl)c1,6.211
CCCc1cc(N2CCC(NC3CCS(=O)(=O)C3)CC2)nc(C)n1 (configuration not stated),12.06
Cc1cccc(CN2Cc3[nH]nc(COCCO)c3C2)n1,10.73
CC(=O)N1CCc2[nH]cnc2C1C1=CCCN(CCn2cccc2)C1 (configuration not stated),0.5115
COc1cccc(CNc2cnn(C)c(=O)c2Cl)c1,11.19
COc1cccc(CC(=O)NCC(Cc2ccc(F)cc2)C(N)=O)c1 (configuration not stated),15.21
FC(F)Oc1ccc(NCc2nc(C3CC3)no2)c(OC(F)F)c1,8.696
CN(C)CC1CN(c2ncnc3ccsc23)CCO1 (configuration not stated),8.447
COc1ccccc1C1CNC(=O)c2nc(-c3cn(C)nc3C)[nH]c2C1 (configuration not stated),7.692
O=C(c1sccc1C1CC1)N1CCN(Cc2cscn2)CC1,4.972
COc1ccc(NC(=O)NCC(O)c2ccccc2F)c(OC)c1 (configuration not stated),1.14
CC(C)Cn1ccnc1CNC(=O)N1CCCC1CN1CCOCC1 (configuration not stated),10.34
O=C(CN1CCCC1c1nc(-c2ccccn2)no1)N1CCNCC1 (configuration not stated),4.819
COc1ccc(C(CNC(=O)Nc2cn[nH]c2)N2CCOCC2)cc1 (configuration not stated),17.36
Cn1cc(C2COC3(CCN(C(=O)c4ccn(C)n4)CC3)C2)cn1 (configuration not stated),12.94
N#Cc1ncn(CCC(=O)Nc2cc(Cl)ccc2Cl)n1,13.5
Cc1nn(C)c(C)c1CC(C)NC(=O)NCc1ccn(C(C)C)n1 (configuration not stated),13.19
O=C(c1ccnc(N2CCOC(c3ccc(Cl)cc3)C2)c1)N1CCCC1 (configuration not stated),12.29
COCCNC(=O)[C@H]1C[C@@](CC(C)C)(C(=O)O)N(C)[C@H]1c1cccnc1,17.47
O=C(C1CCOCC1)N1CCO[C@H]2[C@H](Oc3cccnc3)CC[C@@H]21,11.25
CN(C)CCn1c2c(ccc1=O)CCN(C(=O)c1cccs1)CC2,11.68
CS(=O)(=O)c1nccn1CCOc1ccc(F)cc1Cl,4.261
O=c1cc(Cn2ccnc2)nc2n1CCCN(Cc1ccncc1)C2,8.934
CN1CCN([C@@H]2CCN(C3CCOCC3)[C@H]2Cc2cnn(C)c2)CC1,16.79
CCn1ccnc1CN(C)Cc1nc(Cc2cccc(F)c2)no1,4.735
Nc1nc(CN2CCCC(Cn3cncn3)C2)nc2ccccc12 (configuration not stated),12.38
Nc1cc(-c2nccnc2N2CCCC2)c2cc[nH]c2n1,23.21
CN1CC(=O)N(c2ccccc2)CC12CCN(Cc1nccs1)C2 (configuration not stated),7.95
CCC(C)(C)c1cc(-c2c(C)nn(CCO)c2C)c(C#N)c(N)n1,3.284
CCn1ncc2c1C(COC)CN(S(=O)(=O)N(C)C)C2 (configuration not stated),3.008
CCn1cc2c(n1)C(COC)CN(C(=O)COc1ccccc1)C2 (configuration not stated),3.546
CC(C)OCc1ccc(CNC(=O)NC2(CO)CCCC2)cc1,13.35
CC(=O)c1cc(CC(=O)NCc2c(F)cccc2F)cs1,15.58
CN1CCC2(CC1)CN(CC1CC1)CC21CCNC1=O (configuration not stated),9.444
Cc1noc(C)c1C(=O)N1CCC(Nc2cccnn2)CC1,10
COc1cc(C)nc(N2CCN(C(=O)c3ccoc3C)CC2)n1,16.87
CC(C)CCCNC(=O)Nc1ccc(C(N)=O)c(Cl)c1,15.3
CCC(CC)N(C)S(=O)(=O)c1ccc(CCNC(C)=O)s1,3.371

Source: ChEMBL document CHEMBL3988442, “University of Dundee, Small-Polar-MMV Screening Library” (2021).